The experiment can be described thus: qHTS Assay for Lipid Storage Modulators in Drosophila S3 Cells.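 For cell number change: cells counted by Cell Tracker Red CMTPX staining in the red channel.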 The note with it: BODIPY lipid droplet fluorescence, 18-24 h; for cell number change: measured here: cell count max response, cells fed with added oleic acid. The method in brief: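 Laser-scanning cytometry quantifies lipid droplet accumulation (500–530 nm total intensity; droplet/cell object ratio) in oleic acid-fed (400 uM added) Drosophila S3 cells treated with a concentration series. 20 uM Triacsin C defined 100% inhibition.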
A general note: Quantitative high-throughput screening tests each substance at several concentrations.

[1] abbreviates: measured here: lipid fluorescence (Fed channel) AC50, cells fed with added oleic acid.
Setting [2] is: measured here: cell number channel AC50, cells fed with added oleic acid.

The list shows a part of the results. Shown are side measurements of this screen, not its main read-out; they come without a call. Compounds called inactive in the main read-out are mostly missing here. Words in brackets tell the shape of the fitted curve; partial curves, single points and poor fits give uncertain potencies.

Regarding `Cc1ccc(-c2csc3ncnc(NCCC(=O)O)c23)cc1`, the cell number change was -9.47%.

What is called AC50 is the concentration giving half of the maximal activity seen. Read a low AC50 as greater potency. Regarding `COc1cc(NC(=O)C2CCCO2)c(OC)cc1NC(=O)c1ccccc1` (stereo not given), the cell number change was found to be 4.18%. Besides, the AC50 under setting [1] was 2.59 µM [rising, full curve].

Consider `Cc1ccc(S(=O)(=O)NCCC(=O)N2CCOCC2)cc1C`, for which the cell number change is -9.35%. For the same compound, the AC50 under setting [1] was 0.651 µM [falling, full curve, poor fit].

For `CCOc1ccc(OCc2ccc(C(=O)NCc3ccncc3)o2)cc1`, the cell number change is 0.625%. Further, the AC50 under setting [1] is 6.51 µM [rising, partial curve, poor fit].

Turning to `COc1cc(NC(=O)c2cc(C(C)C)on2)c(OC)cc1Cl`, the cell number change was 32.8%. In addition, under setting [2], the AC50 was 9.2 µM [rising, partial curve]. The AC50 under setting [1] was 6.51 µM [rising, single point].

On to `CCCCN(C(=O)Cc1ccc(S(=O)(=O)N2CCOCC2)s1)c1c(N)n(CCCC)c(=O)[nH]c1=O`, for which the half-maximal activity concentration (AC50) under setting [2] is 6.51 µM [rising, single point] and the AC50 under setting [1] was 29.1 µM [rising, single point].

With `Cc1ccc(CN(C)C(=O)CN2C(=O)NC3(CCCC3)C2=O)o1`, the cell number change was -45.3%. In addition, the AC50 under setting [2] was 23.1 µM [falling, partial curve, poor fit]. The AC50 under setting [1] is 20.6 µM [falling, partial curve, poor fit].

Take `CCOCCCn1c(SCC(=O)Nc2cc(OC)ccc2OC)nc2ccccc2c1=O`: the cell number change stood at 2.33%.

As for `O=C(C1CCN(S(=O)(=O)c2ccc(Br)s2)CC1)N1CCN(c2ccccc2)CC1`, the cell number change is 3.15%. Under setting [1], the half-maximal activity concentration (AC50) is 0.116 µM [rising, full curve, poor fit].

Turning to `CSc1nnc(C)c(/C=C/NOCc2ccc(Cl)cc2)n1`, the cell number change turned out to be 31.6%. Under setting [2], the AC50 was 0.116 µM [rising, partial curve, poor fit]. In addition, under setting [1], the AC50 was 6.51 µM [rising, single point].

Consider `O=C(N=C1SC2CS(=O)(=O)CC2N1Cc1ccc(Cl)cc1)C1CCCO1` (stereo not given), for which the cell number change came to 2.29%. Besides, the AC50 under setting [2] is 6.51 µM [rising, single point]. Besides, the AC50 under setting [1] is 6.51 µM [rising, single point].

Turning to `Clc1ccc(-c2ccc(/C=N/Nc3nncc(-c4ccccc4)n3)o2)cc1`, the cell number change amounted to 53.8%. Besides, under setting [2], the AC50 was 0.146 µM [rising, full curve].

As to `Oc1ccc(N=Nc2cccc(C(F)(F)F)c2)cc1C=Nc1ccc(N2CCOCC2)cc1`, the cell number change was -5.01%. The AC50 under setting [1] is 8.2 µM [falling, partial curve].

For `Cc1cc(NC(=O)c2ccc(C)c(C)c2)no1`, the cell number change was -1.09%. Besides, the AC50 under setting [1] was 29.1 µM [rising, single point].

`CCCC(C)C(=O)NCc1ccc2c(c1)OCO2` (stereo not given): the cell number change was 42.3%. Besides, the AC50 under setting [2] was 4.61 µM [rising, partial curve].

In the case of `Cc1ccccc1-n1c(-c2cccnc2)n[nH]c1=S`, the cell number change was 7.53%. The AC50 under setting [1] was 0.146 µM [rising, full curve, poor fit].

Turning to `COc1ccc(CCN2C(=O)NC(NS(=O)(=O)c3ccc(NC(C)=O)cc3)(C(F)(F)F)C2=O)cc1OC` (stereo not given), the cell number change was -3.69%. In addition, under setting [2], the half-maximal activity concentration (AC50) was 0.00517 µM [falling, full curve, poor fit]. For the same compound, the AC50 under setting [1] is 0.00517 µM [falling, full curve, poor fit].

On to `COc1cc(OC)c(/C=C2\SC(=O)N(CC(=O)Nc3ccccc3F)C2=O)c(OC)c1`, for which the cell number change worked out at 37.8%. In addition, the AC50 under setting [2] was 4.11 µM [rising, partial curve, poor fit]. Also, under setting [1], the half-maximal activity concentration (AC50) was 3.66 µM [falling, full curve].

On to `Cc1c(Cl)cccc1NCC(=O)Nc1ccc(Cl)cc1F`, for which the cell number change is -40.2%. Moreover, the AC50 under setting [2] was 14.6 µM [falling, partial curve]. Further, under setting [1], the AC50 was 16.4 µM [falling, partial curve, poor fit].

As for `Cc1ccc(S(=O)(=O)N(C)CC(=O)NCC(c2ccco2)N(C)C)cc1` (stereo not given), the cell number change was -11.2%. Moreover, the AC50 under setting [1] was 0.731 µM [falling, full curve, poor fit].

Take `Cn1c(N)c(C(=O)COC(=O)c2ccccc2C(=O)c2ccccc2)c(=O)n(C)c1=O`: the cell number change is -10.9%. Further, the AC50 under setting [1] is 7.31 µM [falling, partial curve, poor fit].

Turning to `c1ccc(-c2cn(-c3ccccc3)c3[n+]2CCS3)cc1`, the cell number change was -22.4%. Besides, the AC50 under setting [2] was 6.51 µM [rising, single point].

`CCCCn1c(N)c(N(CC(C)C)C(=O)Cc2ccc3c(c2)OCCO3)c(=O)[nH]c1=O`: the cell number change was -75%. Under setting [2], the AC50 is 29.1 µM [falling, single point].

Take `COc1ccc(/C=C2\Oc3cc(OC(=O)N4CCOCC4)ccc3C2=O)cc1`: the cell number change is 10.2%. Besides, the AC50 under setting [1] is 0.92 µM [rising, partial curve].

With `Cc1nn(CC(=O)NCc2ccccc2)c(C)c1[N+](=O)[O-]`, the cell number change was -15.4%. Further, the AC50 under setting [1] is 4.11 µM [falling, full curve, poor fit].

`CCS(=O)(=O)c1ccc2oc(Nc3ccc(C(C)(C)C)cc3)nc2c1`: the cell number change is -23.2%.

In the case of `COc1ccc(S(=O)(=O)N2CCC(C(=O)NC3CCCC3)CC2)cc1C`, the cell number change was -14.5%.

For `CC(C)CCN(C(=O)CCSc1ccc(F)cc1)c1c(N)n(Cc2ccccc2)c(=O)[nH]c1=O`, the cell number change is -25.5%.

In the case of `CCC1CCCCN1CCCNC(=O)c1cc2c(=O)oc3ccc(C)cc3c2s1` (stereo not given), the cell number change was -13.7%. In addition, under setting [1], the AC50 was 6.51 µM [rising, single point].

With `CCN(CC)c1ccc(/C=N/N2CCN(Cc3ccccc3Cl)CC2)cc1`, the cell number change was -51.4%. For the same compound, the AC50 under setting [2] is 13 µM [falling, partial curve, poor fit]. Further, under setting [1], the AC50 was 4.61 µM [falling, full curve].

Consider `CCOc1ccc(C(=O)Nc2nc3ccccc3[nH]2)cc1OCC`, for which the cell number change was 26.9%. The AC50 under setting [2] was 0.82 µM [rising, full curve, poor fit]. Besides, under setting [1], the AC50 was 0.517 µM [rising, full curve, poor fit].

In the case of `Cn1ccc(C(=O)N/N=C/c2ccncc2)n1`, the cell number change is 9.12%. The AC50 under setting [1] is 25.9 µM [rising, single point].

In the case of `O=C(Nc1ccncc1)c1cc(S(=O)(=O)N2CCCCC2)ccc1Cl`, the cell number change turned out to be 77.5%. In addition, the AC50 under setting [2] is 20.6 µM [rising, single point].

For `CC(Sc1nnc(C2CCCCC2)n1N)C(=O)NCc1ccc2c(c1)OCO2` (stereo not given), the cell number change stood at 14.7%. For the same compound, the AC50 under setting [1] was 0.0651 µM [rising, full curve, poor fit].

As to `O=C(C#Cc1ccccc1)c1ccc([N+](=O)[O-])cc1`, the cell number change was -134%. Besides, under setting [2], the concentration at half-maximal activity (AC50) was 29.1 µM [falling, single point]. Also, the AC50 under setting [1] was 0.00731 µM [falling, full curve, poor fit].
